PubChem BioAssay AID1159578 | Peter MacCallum Cancer Centre, 2015

Screen: 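Knock-downs that alter how fast lymphatic endothelial cells migrate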 (primary screen)
Cells: human lymphatic endothelial cells
Reagent: siRNA pool against human genes, 40 nM
Duration: 48 h after transfection
Detection: 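High-content imaging of dye-stained cells in a scratch assay measures filled wound area and nuclei per well; duplicate means given as ratio to mock and robust z-score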
Reading the numbers: migration robust z-score: higher = faster migration into the scratch; migration relative to mock: higher = more scratch area covered than mock; nuclei per well: higher = more cells in the well
Call rule: 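Pools averaging fewer than 3300 nuclei are never called; remaining pools count as changed when migration robust z lies outside -2 to 2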
Meaning of the calls: active = migration changed; inactive = no migration change, or too few cells
Here is one part, drawn at random, of about 18,000 reagents. Over the whole deposit, about 1,030 (5.7%) were called active. 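Inactive calls also include pools with fewer than 3300 nuclei, whose migration was not assessed.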 Raw values are not corrected between plates. Unmarked entries are inactive.

| gene | migration robust z-score | migration class with cell-count check | migration relative to mock | nuclei per well, duplicate mean |
| --- | --- | --- | --- | --- |
| CALML6 | -0.2 | migration z between -2 and 2; enough cells | 0.84 | 6259 |
| CIMAP1D | 0.33 | migration z between -2 and 2; enough cells | 0.96 | 5646 |
| CARD9 | -0.32 | migration z between -2 and 2; enough cells | 0.8 | 4921 |
| SCGB2A2 | 2.26 (active) | migration z above 2; enough cells | 1.47 | 5806 |
| ZBTB38 | -1.06 | migration z between -2 and 2; enough cells | 0.61 | 3870 |
| NECTIN4 | -0.75 | migration z between -2 and 2; enough cells | 0.66 | 5956 |
| OR4D2 | -1.18 | migration z between -2 and 2; enough cells | 0.58 | 6318 |
| NSMCE2 | -0.57 | migration z between -2 and 2; enough cells | 0.74 | 6743 |
| ZNF782 | 0.78 | migration z between -2 and 2; enough cells | 1.09 | 7450 |
| MTARC1 | -3.22 (active) | migration z below -2; enough cells | 0.05 | 6429 |
| PLA2G2E | 0.68 | migration z between -2 and 2; enough cells | 0.94 | 4896 |
| CDK5RAP2 | 0.64 | migration z between -2 and 2; enough cells | 1.05 | 6832 |
| EPHX4 | 0.13 | migration z between -2 and 2; enough cells | 0.83 | 4709 |
| PHETA2 | -1.04 | migration z between -2 and 2; enough cells | 0.61 | 5864 |
| NIBAN1 | 0.37 | migration z between -2 and 2; enough cells | 0.99 | 5014 |
| ZNF366 | -1.6 | migration z between -2 and 2; enough cells | 0.47 | 5624 |
| RAC3 | -0.03 | migration z between -2 and 2; enough cells | 0.88 | 7282 |
| DBF4 | -0.78 | migration z between -2 and 2; enough cells | 0.66 | 5038 |
| EIF3C | -2.18 (active) | migration z below -2; enough cells | 0.38 | 4909 |
| ACTR6 | 1.36 | migration z between -2 and 2; enough cells | 1.23 | 5894 |
| AGK | 0.13 | migration z between -2 and 2; enough cells | 0.83 | 4619 |
| TPTE | 1.43 | migration z between -2 and 2; enough cells | 1.08 | 6501 |
| DEFB104B | -0.62 | migration z between -2 and 2; enough cells | 0.73 | 7486 |

Records listed so far called active, once more:
| gene | migration robust z-score | migration class with cell-count check | migration relative to mock | nuclei per well, duplicate mean |
| --- | --- | --- | --- | --- |
| SCGB2A2 | 2.26 (active) | migration z above 2; enough cells | 1.47 | 5806 |
| MTARC1 | -3.22 (active) | migration z below -2; enough cells | 0.05 | 6429 |
| EIF3C | -2.18 (active) | migration z below -2; enough cells | 0.38 | 4909 |
